The supplement of paper PMC8256030
The other results are listed elsewhere or left out. This data set is noisy: repeats of one test often differ as much as different tests do.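 HEK293T cells were given each compound shortly before transfection with a reporter in which red mCherry is followed by the SARS-CoV-2 frameshift element and then GFP in the −1 frame, so GFP appears only after frameshifting.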

Test system: HEK293T
Test: percent viability (nuclei count) relative to control; higher = more viable cells
Settings: 10 µM; 24 h

Row | Structure (SMILES) | percent viability [%]
1 | CC(=O)NC1C(O)CC(O)(C(=O)O)OC1C(O)C(O)CO (centres undefined) | 370
2 | Nc1ccc(C(=O)O)c(O)c1 [4-Aminosalicylic acid] | 146
3 | CC[C@]12CN3CCc4c([nH]c5ccccc45)[C@@](C(=O)OC)(c4cc5c(cc4OC)N(C)[C@H]4[C@@](O)(C(=O)OC)[C@H](OC(C)=O)[C@]6(CC)C=CCN7CC[C@]54[C@@H]76)C[C@@H](C3)[C@H]1O2 [vinleurosine] | 15.9
4 | CCCCCCOc1nsnc1C1=CCCN(C)C1 [xanomeline] | 177
5 | CCOC(=O)OC(C)OC(=O)[C@@H]1N2C(=O)[C@@H](NC(=O)[C@H](N)c3ccccc3)[C@H]2SC1(C)C (some centres undefined) [bacampicillin] | 41.2
6 | CO[C@H]1C[C@@H]2CC[C@@H](C)[C@@](O)(O2)C(=O)C(=O)N2CCCC[C@H]2C(=O)O[C@H]([C@H](C)C[C@@H]2CC[C@@H](OC(=O)C(C)(CO)CO)[C@H](OC)C2)CC(=O)[C@H](C)/C=C(\C)[C@@H](O)[C@@H](OC)C(=O)[C@H](C)C[C@H](C)/C=C/C=C/C=C/1C [Temsirolimus] | 196
7 | N=C(N)C(O)c1ccc2c(c1)OCO2 (centres undefined) [olmidine] | 272
8 | CCOC(=O)OC(C)OC(=O)[C@@H]1N2C(=O)[C@@H](NC(=O)[C@H](N)c3ccccc3)[C@H]2SC1(C)C (some centres undefined) | 142
9 | COc1ccc(CCN(C)CCC[C@](C#N)(c2ccc(OC)c(OC)c2)C(C)C)cc1OC [dexverapamil] | 371

Records 8 to 9, reprinted for reference:
Row | Structure (SMILES) | percent viability [%]
8 | CCOC(=O)OC(C)OC(=O)[C@@H]1N2C(=O)[C@@H](NC(=O)[C@H](N)c3ccccc3)[C@H]2SC1(C)C (some centres undefined) | 142
9 | COc1ccc(CCN(C)CCC[C@](C#N)(c2ccc(OC)c(OC)c2)C(C)C)cc1OC [dexverapamil] | 371
